Experimental data published in patent US20070073060A1, “Tricycle indole hydroxyethlamine derivatives and their use in the treatment of alzheimer's disease” (priority 2003, published 2007).
Some results were stated once for a whole list of compounds, not compound by compound.

Chains of the proteins cited; added tags and fusions are not shown. Residues count along the entry.
UniProt P56817, 46-501: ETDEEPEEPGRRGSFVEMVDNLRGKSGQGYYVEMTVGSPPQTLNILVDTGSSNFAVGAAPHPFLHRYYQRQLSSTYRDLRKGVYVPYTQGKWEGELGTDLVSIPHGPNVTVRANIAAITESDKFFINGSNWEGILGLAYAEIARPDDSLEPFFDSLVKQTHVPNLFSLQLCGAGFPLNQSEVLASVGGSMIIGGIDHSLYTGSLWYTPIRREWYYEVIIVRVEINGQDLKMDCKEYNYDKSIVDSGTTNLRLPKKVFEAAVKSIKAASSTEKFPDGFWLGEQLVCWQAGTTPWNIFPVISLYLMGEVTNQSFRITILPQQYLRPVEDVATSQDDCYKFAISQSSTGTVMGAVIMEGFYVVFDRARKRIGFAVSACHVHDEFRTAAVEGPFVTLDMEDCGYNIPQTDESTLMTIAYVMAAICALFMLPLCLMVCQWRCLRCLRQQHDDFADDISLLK
UniProt P07339, 65-412, species assumed: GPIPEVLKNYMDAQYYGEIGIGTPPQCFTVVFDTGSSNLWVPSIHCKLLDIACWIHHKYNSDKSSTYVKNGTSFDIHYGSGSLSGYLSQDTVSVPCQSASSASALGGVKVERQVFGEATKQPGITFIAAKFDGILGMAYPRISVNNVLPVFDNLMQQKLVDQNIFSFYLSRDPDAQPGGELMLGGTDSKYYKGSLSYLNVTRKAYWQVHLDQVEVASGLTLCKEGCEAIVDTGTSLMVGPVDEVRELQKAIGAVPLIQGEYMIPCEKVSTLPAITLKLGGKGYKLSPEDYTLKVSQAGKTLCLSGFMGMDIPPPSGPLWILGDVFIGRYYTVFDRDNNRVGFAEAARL

Columns and labels:
Asp2 = Asp2 (Homo sapiens, UniProt P56817); assay: Asp-2 Inhibitory Assay; type: biochemical; conditions: Assay (I); FAM-SEVNLDAEFK-TAMRA substrate, pH 4.5, 1 h room temperature; range over all examples, units printed in the value (nM to μM)
Cathepsin D = Cathepsin D (Homo sapiens, UniProt P07339); assay: Cathepsin D Inhibitory Assay; type: biochemical; conditions: Assay (II); FAM-SEVNLDAEFK-TAMRA substrate, pH 4.5, 1 h room temperature; range over all examples, units printed in the value (nM to >μM); read-out: inhibition (CatD)

SMILES | inhibition (Asp2) (Asp2) | IC50 (Cathepsin D) [nM]
CCn1cc2c3c(cc(C(=O)N[C@@H](Cc4ccccc4)[C@H](O)CNc4ccc(OC)cc4)cc31)N(C)S(=O)(=O)CC2.O=CO [Example E62, Formic acid - 6-Ethyl-N-[(1S, 2R)-2-hydroxy-3-{[4-(methyloxy)phenyl]amino}-1-(phenylmethyl)propyl]-1-methyl-1,3,4,6-tetrahydro[1,2]thiazepino[5,4,3-cd]indole-8-carboxamide 2,2-dioxide (1:1)] | 2 nM-10 μM | ≥ 30
CCCOCCNC[C@@H](O)[C@H](Cc1ccccc1)NC(=O)c1cc2c3c(cn(CC)c3c1)CCS(=O)(=O)N2C.O=CO [Example E46, Formic acid - 6-Ethyl-N-((1S, 2R)-2-hydroxy-1-(phenylmethyl)-3-{[2-(propyloxy)ethyl]amino}propyl)-1-methyl-1,3,4,6-tetrahydro(1,2]thiazepino[5,4,3-cd]indole-8-carboxamide 2,2-dioxide (1:1)] | 2 nM-10 μM | ≥ 30
CCn1cc2c3c(cc(C(=O)N[C@@H](Cc4ccccc4)[C@H](O)CNCCCF)cc31)N(C)S(=O)(=O)CC2.O=CO [Example E86, Formic acid - 6-Ethyl-N-[(1S, 2R)-3-[(3-fluoropropyl)amino]-2-hydroxy-1-(phenylmethyl)propyl]-1-methyl-1,3,4,6-tetrahydro[1,2]thiazepino[5,4,3-cd]indole-8-carboxamide 2,2-dioxide (1:1)] | 2 nM-10 μM | ≥ 30
CCn1cc2c3c(cc(C(=O)N[C@@H](Cc4ccccc4)[C@H](O)CNc4cccc(OC)c4)cc31)N(C)S(=O)(=O)CC2.O=CO [Example E64, Formic acid - 6-Ethyl-N-[(1S, 2R)-2-hydroxy-3-{[3-(methyloxy)phenyl]amino}-1-(phenylmethyl)propyl]-1-methyl-1,3,4,6-tetrahydro[1,2]thiazepino[5,4,3-cd]indole-8-carboxamide 2,2-dioxide (1:1)] | 2 nM-10 μM | ≥ 30
CCn1cc2c3c(cc(C(=O)N[C@@H](Cc4ccccc4)[C@H](O)CNCc4cccc(OC(F)(F)F)c4)cc31)N(C)S(=O)(=O)CC2.O=CO [Example E77] | 2 nM-10 μM | ≥ 30
CCn1cc2c3c(cc(C(=O)N[C@@H](Cc4ccccc4)[C@H](O)CNc4ccc(OC)cc4C)cc31)N(C)S(=O)(=O)CC2.O=CO [Example E83] | 2 nM-10 μM | ≥ 30
C=CCNC[C@@H](O)[C@H](Cc1ccccc1)NC(=O)c1cc2c3c(cn(CC)c3c1)CCS(=O)(=O)N2C.O=CO [Example E28, Formic acid - 6-Ethyl-N-[(1S, 2R)-2-hydroxy-1-(phenylmethyl)-3-(2-propen-1-ylamino)propyl]-1-methyl-1,3,4,6-tetrahydro[1,2]thiazepino[5,4,3-cd]indole-8-carboxamide 2,2-dioxide (1:1)] | 2 nM-10 μM | ≥ 30
CCn1cc2c3c(cc(C(=O)N[C@@H](Cc4ccccc4)[C@H](O)CNC4[C@H]5C[C@@H]6C[C@@H](C[C@H]4C6)C5)cc31)N(C)S(=O)(=O)CC2 (stereo partly drawn) [Example E44, 6-Ethyl-N-[(1S, 2R)-2-hydroxy-1-(phenylmethyl)-3-(tricyclo[3.3.1.1^3,7]dec-2-ylamino)propyl]-1-methyl-1,3,4,6-tetrahydro[1,2]thiazepino[5,4,3-cd]indole-8-carboxamide 2,2-dioxide] | 2 nM-10 μM | ≥ 30
CCn1cc2c3c(cc(C(=O)N[C@@H](Cc4ccccc4)[C@H](O)CNCc4ccncc4)cc31)N(C)S(=O)(=O)CC2.O=CO [Example E7, Formic acid - 6-Ethyl-N-{(1S, 2R)-2-hydroxy-1-(phenylmethyl)-3-[(4-pyridinylmethyl)amino]propyl}-1-methyl-1,3,4,6-tetrahydro[1,2]thiazepino[5,4,3-cd]indole-8-carboxamide 2,2-dioxide (1:1)] | 2 nM-10 μM | ≥ 30
CCn1cc2c3c(cc(C(=O)N[C@@H](Cc4ccccc4)[C@H](O)CNC4CCC(C)(C)CC4)cc31)N(C)S(=O)(=O)CC2.O=CO [Example E26, Formic acid - N-[(1S, 2R)-3-[(4,4-Dimethylcyclohexyl)amino]-2-hydroxy-1-(phenylmethyl)propyl]-6-ethyl-1-methyl-1,3,4,6-tetrahydro[1,2]thiazepino[5,4,3-cd]indole-8-carboxamide 2,2-dioxide (1:1)] | 2 nM-10 μM | ≥ 30
CCCC1(NC[C@@H](O)[C@H](Cc2ccccc2)NC(=O)c2cc3c4c(cn(CC)c4c2)CCS(=O)(=O)N3C)CCCCC1.O=CO [Example E51, Formic acid - 6-Ethyl-N-{(1S, 2R)-2-hydroxy-1-(phenylmethyl)-3-[(1-propylcyclohexyl)amino]propyl}-1-methyl-1,3,4,6-tetrahydro[1,2]thiazepino[5,4,3-cd]indole-8-carboxamide 2,2-dioxide (1:1)] | 2 nM-10 μM | ≥ 30
CCc1cc(CNC[C@@H](O)[C@H](Cc2ccccc2)NC(=O)c2cc3c4c(cn(CC)c4c2)CCS(=O)(=O)N3C)on1 [Example E10, 6-Ethyl-N-[(1S, 2R)-3-{[(3-ethyl-5-isoxazolyl)methyl]amino}-2-hydroxy-1-(phenylmethyl)propyl]-1-methyl-1,3,4,6-tetrahydro[1,2]thiazepino[5,4,3-cd]indole-8-carboxamide 2,2-dioxide] | 2 nM-10 μM | ≥ 30
CCn1cc(CNC[C@@H](O)[C@H](Cc2ccccc2)NC(=O)c2cc3c4c(cn(CC)c4c2)CCS(=O)(=O)N3C)cn1.O=CO [Example E57, Formic acid - 6-Ethyl-N-[(1S, 2R)-3-{[(1-ethyl-1H-pyrazol-4-yl)methyl]amino}-2-hydroxy-1-(phenylmethyl)propyl]-1-methyl-1,3,4,6-tetrahydro[1,2]thiazepino[5,4,3-cd]indole-8-carboxamide 2,2-dioxide (1:1)] | 2 nM-10 μM | ≥ 30
CCCn1cc2c3c(cc(C(=O)N[C@@H](Cc4ccccc4)[C@H](O)CNCc4cccc(OC)c4)cc31)N(C)S(=O)(=O)CC2.O=CO [Example E69, Formic acid - N-[(1S, 2R)-2-Hydroxy-3-({[3-(methyloxy)phenyl]methyl}amino)-1-(phenylmethyl)propyl]-1-methyl-6-propyl-1,3,4,6-tetrahydro[1,2]thiazepino[5,4,3-cd]indole-8-carboxamide 2,2-dioxide (1:1)] | 2 nM-10 μM | ≥ 30
CCn1cc2c3c(cc(C(=O)N[C@@H](Cc4ccccc4)[C@H](O)CNCc4cnn(CC(F)(F)F)c4)cc31)N(C)S(=O)(=O)CC2.O=CO [Example E5, Formic acid - 6-Ethyl-N-[(1S, 2R)-2-hydroxy-1-(phenylmethyl)-3-({[1-(2,2,2-trifluoroethyl)-1H-pyrazol-4-yl]methyl}amino)propyl]-1-methyl-1,3,4,6-tetrahydro[1,2]thiazepino[5,4,3-cd]indole-8-carboxamide 2,2-dioxide (1:1)] | 2 nM-10 μM | ≥ 30
CCn1cc2c3c(cc(C(=O)N[C@@H](Cc4ccccc4)[C@H](O)CNC4CCOC(C)(C)C4)cc31)N(C)S(=O)(=O)CC2.O=CO (stereo partly drawn) [Example E9, Formic acid - N-[(1S, 2R)-3-[(2,2-Dimethyltetrahydro-2H-pyran-4-yl)amino]-2-hydroxy-1-(phenylmethyl)propyl]-6-ethyl-1-methyl-1,3,4,6-tetrahydr[1,2]thiazepino[5,4,3-cd]indole-8-carboxamide 2,2-dioxide (1:1)] | 2 nM-10 μM | ≥ 30
CCn1cc2c3c(cc(C(=O)N[C@@H](Cc4ccccc4)[C@H](O)CNc4ccccc4OC)cc31)N(C)S(=O)(=O)CC2.O=CO [Example E61, Formic acid - 6-Ethyl-N-[(1S, 2R)-2-hydroxy-3-{[2-(methyloxy)phenyl]amino}-1-(phenylmethyl)propyl]-1-methyl-1,3,4,6-tetrahydro[1,2]thiazepino[5,4,3-cd]indole-8-carboxamide 2,2-dioxide (1:1)] | 2 nM-10 μM | ≥ 30
CCn1cc2c3c(cc(C(=O)N[C@@H](Cc4ccccc4)[C@H](O)CNc4ccccc4)cc31)N(C)S(=O)(=O)CC2 [Example E54, Formic acid - 6-Ethyl-N-[(1S, 2R)-2-hydroxy-3-(phenylamino)-1-(phenylmethyl)propyl]-1-methyl-1,3,4,6-tetrahydro[1,2]thiazepino[5,4,3-cd]indole-8-carboxamide 2,2-dioxide (1:1)] |  | ≥ 30
CCn1cc2c3c(cc(C(=O)N[C@@H](Cc4ccccc4)[C@H](O)CNCC(F)(F)F)cc31)N(C)S(=O)(=O)CC2 [Example E17] |  | ≥ 30
CCCNC[C@@H](O)[C@H](Cc1ccccc1)NC(=O)c1cc2c3c(cn(CC)c3c1)CCS(=O)(=O)N2C [Example E32, 6-Ethyl-N-[(1S, 2R)-2-hydroxy-1-(phenylmethyl)-3-(propylamino)propyl]-1-methyl-1,3,4,6-tetrahydro[1,2]thiazepino[5,4,3-cd]indole-8-carboxamide 2,2-dioxide] |  | ≥ 30
CCn1cc2c3c(cc(C(=O)N[C@@H](Cc4ccccc4)[C@H](O)CNCC(F)F)cc31)N(C)S(=O)(=O)CC2 [Example E34, N-[(1S, 2R)-3-[(2,2-Difluoroethyl)amino]-2-hydroxy-1-(phenylmethyl)propyl]-6-ethyl-1-methyl-1,3,4,6-tetrahydro[1,2]thiazepino[5,4,3-cd]indole-8-carboxamide 2,2-dioxide] |  | ≥ 30
CCn1cc2c3c(cc(C(=O)N[C@@H](Cc4ccccc4)[C@H](O)CNCC(F)(F)C(F)(F)F)cc31)N(C)S(=O)(=O)CC2 [Example E14, 6-Ethyl-N-[(1S, 2R)-2-hydroxy-3-[(2,2,3,3,3-pentafluoropropyl)amino]-1-(phenylmethyl)propyl]-1-methyl-1,3,4,6-tetrahydro[1,2]thiazepino[5,4,3-cd]indole-8-carboxamide 2,2-dioxide] |  | ≥ 30
